Results reported in patent US20120283203A1, “METHODS AND COMPOSITIONS FOR THE TREATMENT OF OBESITY, INSULIN RELATED DISEASES AND HYPERCHOLESTEROLEMIA” (Board of Trustees of Michigan State University, priority 2005, published 2012).
“Also recorded” adds a separate entry of the source. At least one compound was matched to its structure with a doubt left.

Key:
[1] = Total plasma cholesterol at end of feeding study; type: in vivo, C57BL/6J mice; conditions: compared to high fat diet control
Experimental: Collection of serum, liver and adipose tissue. The feeding was terminated after 12 weeks.
Determination of Plasma Cholesterol: The total plasma cholesterol was analyzed by Clinical Pathology Laboratory at the Diagnostic Center for Population and Animal Health, College of Veterinary Medicine, Michigan State University according to the established standard analytical protocol for total cholesterol.

[2] = Glucose tolerance test (i.p. glucose 2 g/kg) in high fat diet fed mice; type: in vivo, C57BL/6J mice
Experimental: Glucose Tolerance Test (GTT). The glucose tolerance test was performed on five animals from each group (n=5) after 6 weeks of supplementation. The blood glucose level was measured at time 0 (min) with a Free Style Flash (TheraSense, Inc., CA) handheld glucometer using the test strips (Free Style, TheraSense, Inc., CA). For GTT, a sterile solution containing 2 g of glucose per kg body weight was injected intraperitoneally (i.p.). The tail vein blood was collected and glucose levels measured at 5, 10, 15, 30, 60, and 90 min, respectively. The blood glucose levels were plotted against the time (FIG. 3).

INS-1 832/13 cells = test: Insulin secretion by INS-1 832/13 pancreatic beta cells (RIA, normalized to cellular protein); type: cell-based, rodent
Experimental: Insulin Secretion Studies. INS-1 832/13 cells (kindly provided by Dr Christopher Newgard, Duke University, N.C.) were routinely cultured in 5% CO2/air at 37° C. in RPMI-1640 medium containing 11.1 mM glucose and supplemented with 10% FBS (Fetal Bovine Serum), 10 mM HEPES, 100 U/ml penicillin, […] streptomycin, 4 mM Glutamine, 1 mM sodium pyruvate, and 50 μM 2-mercaptoethanol. Cells were passed weekly after trypsin-EDTA detachment. For static secretion studies, cells were plated on 24 well plates at a density of 0.64×10^6 cells per well and grown for 24 h. The cells were then cultured for an additional 24 h in RPMI-1640 containing 4 mM glucose and the supplements described above. Cells were then incubated twice for 30 min in Krebs Ringer Bicarbonate buffer (KRBB) containing 4 mM glucose and 0.1% BSA. […] Cellular protein concentration was then determined by Lowry assay. […] The insulin secreted into the medium by the cells was determined by radioimmuno assay and normalized to total cellular protein.
Radio Immuno Assay (RIA). […] The tubes were then centrifuged and the radioactivity was measured using a gamma counter.
Lowry protein Assay. The amount of protein in the assay wells was determined by Lowry method. […] The optical density of resulting solutions was read at 700 nm using a UV spectrophotometer.

Row | SMILES | plasma cholesterol (in words) [1] | glucose tolerance / insulin resistance (in words) [2] | effect on insulin secretion (in words) (INS-1 832/13 cells; 4 mM glucose) | effect on insulin secretion (in words) (INS-1 832/13 cells; 10 mM glucose)
1 | C=C(C)[C@@H]1CC[C@]2(C(=O)O)CC[C@]3(C)[C@H](CC[C@@H]4[C@@]5(C)CC[C@H](O)C(C)(C)[C@@H]5CC[C@]43C)[C@@H]12 [betulinic acid] | considerable decrease in total cholesterol; also recorded: significantly lower than the control animals | did not respond in GTT | – | –
2 | Oc1cc(O)c2cc(O)c(-c3cc(O)c(O)c(O)c3)[o+]c2c1 [delphinidin] | – | – | not significant | did not show glucose-induced insulin secretion
